# Assay results as given in the supplement of paper PMC8728848.
# The list shows a part of the results.
# B1: Pbx2CASH domain (Cryptococcus neoformans) (protein)
# chain: GIPGPNRLYRLSGPIIFTAADQEIATYGYPTGSERAVLRVEGRNTATAIQGDCRRCARVSVKNLVVDGNRKKLGRMRDFQLATGLVVLGGNEGQSIQNSWIKNPRGFTAIHIREGDKLQCSGARVEKNEIGPVGEEYDPEKDGDDPEMSPLGRPLADGVSIACRDSFIRDNTFRDNTDAAIVVYCSPGTLIHA
# Key:
# Test in all cases: glycan array binding signal (z-score within array); higher = stronger binding
# Conditions in all cases: glycan notation: IUPAC condensed, linker removed
# [1] = target: Gal(b1-4)GlcNAc(b1-2)[Gal(b1-4)GlcNAc(b1-6)]Man(a1-6)[GlcNAc(b1-4)][Gal(b1-4)GlcNAc(b1-2)[Gal(b1-4)GlcNAc(b1-4)]Man(a1-3)]Man(b1-4)GlcNAc(b1-4)[Fuc(a1-6)]GlcNAc
# How it was run: (§1)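 Glycan array binding is given as a within-array Z-score, which can be read as non-binding when negative. The arrays, 3228 of them, came from the Consortium for Functional Glycomics database and were retained only where the protein sequence was available. Z-scores were averaged across arrays of the same protein sequence at different concentrations or buffers and across linkers.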
# [2] = target: Gal(b1-4)GlcNAc(b1-3)Gal(b1-3)GalNAc
# How it was run: as §1
# [3] = target: Gal(b1-4)GlcNAc(b1-3)Gal(b1-3)GlcNAc
# How it was run: as §1
# [4] = target: Gal(b1-4)GlcNAc(b1-3)Gal(b1-4)Glc
# How it was run: as §1
# [5] = target: Gal(b1-4)GlcNAc(b1-3)Gal(b1-4)GlcNAc
# How it was run: as §1
# [6] = target: Gal(b1-4)GlcNAc(b1-3)Gal(b1-4)GlcNAc(b1-2)Man(a1-3)[Gal(b1-4)GlcNAc(b1-3)Gal(b1-4)GlcNAc(b1-2)Man(a1-6)]Man(b1-4)GlcNAc(b1-4)GlcNAc
# How it was run: as §1
# [7] = target: Gal(b1-4)GlcNAc(b1-3)Gal(b1-4)GlcNAc(b1-2)Man(a1-3)[Gal(b1-4)GlcNAc(b1-3)Gal(b1-4)GlcNAc(b1-2)Man(a1-6)]Man(b1-4)GlcNAc(b1-4)[Fuc(a1-6)]GlcNAc
# How it was run: as §1
# [8] = target: Gal(b1-4)GlcNAc(b1-3)Gal(b1-4)GlcNAc(b1-2)[Gal(b1-4)GlcNAc(b1-3)Gal(b1-4)GlcNAc(b1-6)]Man(a1-6)[Gal(b1-4)GlcNAc(b1-3)Gal(b1-4)GlcNAc(b1-2)Man(a1-3)]Man(b1-4)GlcNAc(b1-4)GlcNAc
# How it was run: as §1
# [9] = target: Gal(b1-4)GlcNAc(b1-3)Gal(b1-4)GlcNAc(b1-2)[Gal(b1-4)GlcNAc(b1-3)Gal(b1-4)GlcNAc(b1-6)]Man(a1-6)[Gal(b1-4)GlcNAc(b1-3)Gal(b1-4)GlcNAc(b1-2)Man(a1-3)]Man(b1-4)GlcNAc(b1-4)[Fuc(a1-6)]GlcNAc
# How it was run: as §1
# [10] = target: Gal(b1-4)GlcNAc(b1-3)Gal(b1-4)GlcNAc(b1-3)Gal(b1-4)GlcNAc
# How it was run: as §1
# [11] = target: Gal(b1-4)GlcNAc(b1-3)Gal(b1-4)GlcNAc(b1-3)Gal(b1-4)GlcNAc(b1-2)Man(a1-3)[Gal(b1-4)GlcNAc(b1-3)Gal(b1-4)GlcNAc(b1-3)Gal(b1-4)GlcNAc(b1-2)Man(a1-6)]Man(b1-4)GlcNAc(b1-4)GlcNAc
# How it was run: as §1
# [12] = target: Gal(b1-4)GlcNAc(b1-3)Gal(b1-4)GlcNAc(b1-3)Gal(b1-4)GlcNAc(b1-2)Man(a1-3)[Gal(b1-4)GlcNAc(b1-3)Gal(b1-4)GlcNAc(b1-3)Gal(b1-4)GlcNAc(b1-2)Man(a1-6)]Man(b1-4)GlcNAc(b1-4)[Fuc(a1-6)]GlcNAc
# How it was run: as §1
# [13] = target: Gal(b1-4)GlcNAc(b1-3)Gal(b1-4)GlcNAc(b1-3)Gal(b1-4)GlcNAc(b1-2)[Gal(b1-4)GlcNAc(b1-3)Gal(b1-4)GlcNAc(b1-3)Gal(b1-4)GlcNAc(b1-6)]Man(a1-6)[Gal(b1-4)GlcNAc(b1-3)Gal(b1-4)GlcNAc(b1-3)Gal(b1-4)GlcNAc(b1-2)Man(a1-3)]Man(b1-4)GlcNAc(b1-4)[Fuc(a1-6)]GlcNAc
# How it was run: as §1
# [14] = target: Gal(b1-4)GlcNAc(b1-3)Gal(b1-4)GlcNAc(b1-3)Gal(b1-4)GlcNAc(b1-3)Gal(b1-4)GlcNAc(b1-2)Man(a1-3)[Gal(b1-4)GlcNAc(b1-3)Gal(b1-4)GlcNAc(b1-3)Gal(b1-4)GlcNAc(b1-3)Gal(b1-4)GlcNAc(b1-2)Man(a1-6)]Man(b1-4)GlcNAc(b1-4)GlcNAc
# How it was run: as §1
# [15] = target: Gal(b1-4)GlcNAc(b1-3)Gal(b1-4)GlcNAc(b1-3)Gal(b1-4)GlcNAc(b1-3)Gal(b1-4)GlcNAc(b1-2)Man(a1-3)[Gal(b1-4)GlcNAc(b1-3)Gal(b1-4)GlcNAc(b1-3)Gal(b1-4)GlcNAc(b1-3)Gal(b1-4)GlcNAc(b1-2)Man(a1-6)]Man(b1-4)GlcNAc(b1-4)[Fuc(a1-6)]GlcNAc
# How it was run: as §1
# [16] = target: Gal(b1-4)GlcNAc(b1-3)Gal(b1-4)GlcNAc(b1-3)Gal(b1-4)GlcNAc(b1-3)Gal(b1-4)GlcNAc(b1-2)[Gal(b1-4)GlcNAc(b1-3)Gal(b1-4)GlcNAc(b1-3)Gal(b1-4)GlcNAc(b1-3)Gal(b1-4)GlcNAc(b1-6)]Man(a1-6)[Gal(b1-4)GlcNAc(b1-3)Gal(b1-4)GlcNAc(b1-3)Gal(b1-4)GlcNAc(b1-3)Gal(b1-4)GlcNAc(b1-2)Man(a1-3)]Man(b1-4)GlcNAc(b1-4)[Fuc(a1-6)]GlcNAc
# How it was run: as §1
# [17] = target: Gal(b1-4)GlcNAc(b1-3)Gal(b1-4)GlcNAc(b1-3)Gal(b1-4)GlcNAc(b1-3)Gal(b1-4)GlcNAc(b1-3)Gal(b1-4)GlcNAc(b1-2)Man(a1-3)[Gal(b1-4)GlcNAc(b1-3)Gal(b1-4)GlcNAc(b1-3)Gal(b1-4)GlcNAc(b1-3)Gal(b1-4)GlcNAc(b1-3)Gal(b1-4)GlcNAc(b1-2)Man(a1-6)]Man(b1-4)GlcNAc(b1-4)GlcNAc
# How it was run: as §1
# [18] = target: Gal(b1-4)GlcNAc(b1-3)Gal(b1-4)GlcNAc(b1-3)Gal(b1-4)GlcNAc(b1-3)Gal(b1-4)GlcNAc(b1-3)Gal(b1-4)GlcNAc(b1-2)Man(a1-3)[Gal(b1-4)GlcNAc(b1-3)Gal(b1-4)GlcNAc(b1-3)Gal(b1-4)GlcNAc(b1-3)Gal(b1-4)GlcNAc(b1-3)Gal(b1-4)GlcNAc(b1-2)Man(a1-6)]Man(b1-4)GlcNAc(b1-4)[Fuc(a1-6)]GlcNAc
# How it was run: as §1
# [19] = target: Gal(b1-4)GlcNAc(b1-3)Gal(b1-4)GlcNAc(b1-3)Gal(b1-4)GlcNAc(b1-3)Gal(b1-4)GlcNAc(b1-3)Gal(b1-4)GlcNAc(b1-2)[Gal(b1-4)GlcNAc(b1-3)Gal(b1-4)GlcNAc(b1-3)Gal(b1-4)GlcNAc(b1-3)Gal(b1-4)GlcNAc(b1-3)Gal(b1-4)GlcNAc(b1-6)]Man(a1-6)[Gal(b1-4)GlcNAc(b1-3)Gal(b1-4)GlcNAc(b1-3)Gal(b1-4)GlcNAc(b1-3)Gal(b1-4)GlcNAc(b1-3)Gal(b1-4)GlcNAc(b1-2)Man(a1-3)]Man(b1-4)GlcNAc(b1-4)[Fuc(a1-6)]GlcNAc
# How it was run: as §1
# [20] = target: Gal(b1-4)GlcNAc(b1-3)Gal(b1-4)GlcNAc(b1-3)Gal(b1-4)GlcNAc(b1-3)Gal(b1-4)GlcNAc(b1-3)Gal(b1-4)GlcNAc(b1-3)Gal(b1-4)GlcNAc(b1-2)Man(a1-3)[Gal(b1-4)GlcNAc(b1-3)Gal(b1-4)GlcNAc(b1-3)Gal(b1-4)GlcNAc(b1-3)Gal(b1-4)GlcNAc(b1-3)Gal(b1-4)GlcNAc(b1-3)Gal(b1-4)GlcNAc(b1-2)Man(a1-6)]Man(b1-4)GlcNAc(b1-4)GlcNAc
# How it was run: as §1
# [21] = target: Gal(b1-4)GlcNAc(b1-3)Gal(b1-4)GlcNAc(b1-3)GalNAc
# How it was run: as §1
# [22] = target: Gal(b1-4)GlcNAc(b1-3)Gal(b1-4)GlcNAc(b1-3)[Gal(b1-4)GlcNAc(b1-3)Gal(b1-4)GlcNAc(b1-6)]GalNAc
# How it was run: as §1
# [23] = target: Gal(b1-4)GlcNAc(b1-3)Gal(b1-4)GlcNAc(b1-6)[Gal(b1-3)]GalNAc
# How it was run: as §1
binder,measurement,setting,value
B1,glycan array binding signal (z-score),[1],-0.357
same,glycan array binding signal (z-score),[2],-0.134
same,glycan array binding signal (z-score),[3],-0.242
same,glycan array binding signal (z-score),[4],-0.13
same,glycan array binding signal (z-score),[5],-0.456
same,glycan array binding signal (z-score),[6],3.98
same,glycan array binding signal (z-score),[7],0.897
same,glycan array binding signal (z-score),[8],0.517
same,glycan array binding signal (z-score),[9],0.707
same,glycan array binding signal (z-score),[10],0.457
same,glycan array binding signal (z-score),[11],6.89
same,glycan array binding signal (z-score),[12],0.266
same,glycan array binding signal (z-score),[13],1.24
same,glycan array binding signal (z-score),[14],2.13
same,glycan array binding signal (z-score),[15],-0.076
same,glycan array binding signal (z-score),[16],0.38
same,glycan array binding signal (z-score),[17],-0.271
same,glycan array binding signal (z-score),[18],0.243
same,glycan array binding signal (z-score),[19],0.763
same,glycan array binding signal (z-score),[20],2.39
same,glycan array binding signal (z-score),[21],0.969
same,glycan array binding signal (z-score),[22],1.04
same,glycan array binding signal (z-score),[23],1.71

# 2 entries from above, tab-delimited:
binder	measurement	setting	value
B1	glycan array binding signal (z-score)	[14]	2.13
same	glycan array binding signal (z-score)	[15]	-0.076
